# Binding screen against folded nucleic acids

From ROBIN, a set of small-molecule microarray screens (doi:10.1002/anie.202211358).

Targets, with sequences 5′ to 3′:
T1: PreQ1 riboswitch RNA pseudoknot, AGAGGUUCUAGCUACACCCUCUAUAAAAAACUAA. From B. subtilis. About 24,000 compounds screened, about 170 hits.
T2: TPP riboswitch RNA three-way junction, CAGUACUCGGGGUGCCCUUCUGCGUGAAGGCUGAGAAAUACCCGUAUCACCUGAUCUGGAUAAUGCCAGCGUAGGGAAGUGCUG. About 24,000 compounds screened, about 160 hits.
T3: SAM-II riboswitch RNA pseudoknot, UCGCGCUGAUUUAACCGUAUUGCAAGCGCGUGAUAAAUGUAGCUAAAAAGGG. About 21,000 compounds screened, about 200 hits.

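Compounds were printed on reactive glass slides in duplicate spots, a dye-labelled oligonucleotide was laid over them, and the fluorescence left after washing was read. For the PreQ1, TPP and SAM-II riboswitches the laboratory earlier reported (doi:10.1038/s41467-019-09493-3) 1 µM RNA, 2 h, and a rule that included a mean Z-score above 3 (spot signal-to-noise against the whole library), a score well above that on a control array, and duplicate spots agreeing (coefficient of variation under 100). The data file gives only the calls; its cut-offs may differ, and compounds hitting several targets are kept. The calls come from the array alone, and fixing a compound to the slide can hide its binding.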
A compound is marked hit if it was called a hit and no hit if it was screened but was not.
This is an unselected part of the compounds tested.
A target missing from an entry has no call listed here.

For COc1cccc([C@H]2CN(C(=O)CCCOCc3ccccc3)C[C@@H]2N)c1 the calls were T1: no hit; T2: no hit; T3: no hit.
For Cc1nnc(NC(=O)N2CCC(O)CC2)s1 the calls were T1: no hit; T2: no hit; T3: no hit.
For CCc1nc2ccccc2n1CC(O)COc1ccc(Cl)cc1 (stereo not drawn) the calls were T1: no hit; T2: no hit; T3: no hit.
For CCC(NC1Cc2ccccc2C1)c1ccc(S(C)(=O)=O)cc1 (stereo not drawn) the calls were T1: no hit; T2: no hit; T3: no hit.
For CCCCCCn1c(=O)c2c(ncn2CC(O)CO)n(C)c1=O (stereo not drawn) the calls were T1: no hit; T2: no hit.
For Cc1nc2nncn2c(NCc2ccccc2)c1C the calls were T1: no hit; T2: no hit.
For CC(C1=C(CCN(C)C)Cc2ccccc21)c1ccccn1.O=C(O)/C=C\C(=O)O (stereo not drawn) the calls were T1: no hit; T2: no hit; T3: no hit.
For COc1cccc(CN2CCCC(O)(CN(C)Cc3cnc(N)nc3)C2=O)c1 (stereo not drawn) the calls were T1: no hit; T2: no hit; T3: no hit.
For Cc1n[nH]c2c1C(c1c[nH]nc1-c1ccc(F)cc1)C(C#N)=C(N)O2 (stereo not drawn) the calls were T1: no hit; T2: no hit; T3: no hit.
For Nc1ccc2c(c1)Cc1cc(Cl)c(Cl)cc1-2 the calls were T1: hit; T2: hit; T3: hit.
For C1=C\COCc2cc(ccc2OCCN2CCCC2)Nc2nccc(n2)-c2cccc(c2)OCC/1 the calls were T1: no hit; T2: no hit; T3: no hit.
For Cc1cnn(C(C)CNC(=O)c2cc(CN3CCC(O)CC3)on2)c1 (stereo not drawn) the calls were T1: no hit; T2: no hit; T3: no hit.
For O=c1cc(-c2ccccc2)oc2cc(O)cc(O)c12 the calls were T1: no hit; T2: no hit; T3: no hit.
For CN1CCN([C@H]2CN(C(=O)CCC3CCCC3)C[C@@H]2O)CC1 the calls were T1: no hit; T2: no hit; T3: no hit.
For CCN(C)S(=O)(=O)N1C[C@@H](CN2CCCN(C)CC2)[C@@H](CO)C1 the calls were T1: no hit; T2: no hit; T3: no hit.
For O=C(c1ccc(C2CCNC2)cc1)N1CCC2(C=Cc3ccccc32)CC1 (stereo not drawn) the calls were T1: no hit; T2: no hit; T3: no hit.
For COc1cccc(CC(=O)N2C[C@@H](CN3CCCCCC3)[C@@H](CO)C2)c1 the calls were T1: no hit; T2: no hit; T3: no hit.
For COc1ccccc1-n1nnc(-c2nc(-c3ccccc3F)no2)c1N the calls were T1: no hit; T2: no hit.
For COc1ccc(-c2cc3nc(C)cc(NCCCN4CCOCC4)n3n2)cc1OC the calls were T1: no hit; T2: no hit.
For CCCC1=C(C(=O)OCC)C2(C(=O)Nc3ccccc32)C(C(=O)OC(C)C)=C(N)O1 (stereo not drawn) the calls were T1: no hit; T2: no hit; T3: no hit.
For CCc1nc2c(c(NC3CCCN(c4ncccn4)C3)n1)CCNCC2 (stereo not drawn) the calls were T1: no hit; T2: no hit; T3: no hit.
For CN(Cc1cc2n(n1)CCCNC2)Cc1noc2c1CCCC2 the calls were T1: no hit; T2: no hit; T3: no hit.
For CNCC(=O)N1CCn2nc(CN3CCN(c4ncccn4)CC3)cc2C1 the calls were T1: no hit; T2: no hit; T3: no hit.
For Cc1noc(CN(C)c2nccc(N3CCN[C@H]4CS(=O)(=O)C[C@H]43)n2)n1 the calls were T1: no hit; T2: no hit; T3: no hit.
For NCC1CCCc2c1[nH]c1ccccc21 (stereo not drawn) the calls were T1: no hit; T2: no hit; T3: no hit.

2 of the entries, repeated:

* CCN(C)S(=O)(=O)N1C[C@@H](CN2CCCN(C)CC2)[C@@H](CO)C1 : T1: no hit; T2: no hit; T3: no hit
* COc1cccc(CC(=O)N2C[C@@H](CN3CCCCCC3)[C@@H](CO)C2)c1 : T1: no hit; T2: no hit; T3: no hit